Results are given in words; binding and its absence hold for the method and conditions named. In cells and extracts the contact can be indirect. Some entries that bind do so weakly or less than the wild type.
Target: T1, Zinc-finger E-box-binding homeobox 1 (ZEB1) (mouse (endogenous in bone ECs from mouse tibia)) (UniProt Q64318)
T1 sequence: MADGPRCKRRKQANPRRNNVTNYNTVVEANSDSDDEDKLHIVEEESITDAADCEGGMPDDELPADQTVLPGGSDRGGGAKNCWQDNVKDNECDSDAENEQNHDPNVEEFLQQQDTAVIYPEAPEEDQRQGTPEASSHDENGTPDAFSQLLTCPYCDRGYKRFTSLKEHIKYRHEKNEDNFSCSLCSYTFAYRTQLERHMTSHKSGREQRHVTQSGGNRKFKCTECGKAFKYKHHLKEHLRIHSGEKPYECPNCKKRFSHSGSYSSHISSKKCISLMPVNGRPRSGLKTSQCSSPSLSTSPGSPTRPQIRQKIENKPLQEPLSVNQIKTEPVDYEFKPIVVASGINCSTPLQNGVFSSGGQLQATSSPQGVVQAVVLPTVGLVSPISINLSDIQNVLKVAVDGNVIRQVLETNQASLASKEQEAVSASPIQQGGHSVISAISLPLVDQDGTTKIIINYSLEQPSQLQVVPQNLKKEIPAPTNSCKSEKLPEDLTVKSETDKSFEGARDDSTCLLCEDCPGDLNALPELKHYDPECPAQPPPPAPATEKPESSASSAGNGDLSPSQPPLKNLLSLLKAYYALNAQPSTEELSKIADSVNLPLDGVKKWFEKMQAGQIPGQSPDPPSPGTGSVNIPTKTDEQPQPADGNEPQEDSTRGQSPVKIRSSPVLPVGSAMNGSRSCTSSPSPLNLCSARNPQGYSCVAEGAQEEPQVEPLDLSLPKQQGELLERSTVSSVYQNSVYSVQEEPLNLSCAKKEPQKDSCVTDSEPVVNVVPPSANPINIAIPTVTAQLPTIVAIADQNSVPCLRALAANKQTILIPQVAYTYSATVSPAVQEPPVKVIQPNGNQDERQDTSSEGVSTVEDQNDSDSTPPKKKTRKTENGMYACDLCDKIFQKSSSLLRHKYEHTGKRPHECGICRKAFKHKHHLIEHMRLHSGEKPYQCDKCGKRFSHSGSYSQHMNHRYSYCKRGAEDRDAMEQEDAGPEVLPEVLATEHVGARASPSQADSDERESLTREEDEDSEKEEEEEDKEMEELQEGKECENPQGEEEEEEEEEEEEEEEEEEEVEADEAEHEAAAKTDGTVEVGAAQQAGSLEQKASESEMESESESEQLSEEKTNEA
Assay: co-IP; endogenous ZEB1 precipitated with anti-ZEB1 antibody and Protein A/G agarose beads from bone ECs (legend: nuclear extracts); IP lysis buffer 50 mM Tris-HCl, 150 mM NaCl, 1 mM EDTA, 1% NP40, pH 7.4; immunoblot for CBP, p300 and ZEB1

By UniProt entry, the sequences of proteins in these tests, tags left out.
UniProt P45481: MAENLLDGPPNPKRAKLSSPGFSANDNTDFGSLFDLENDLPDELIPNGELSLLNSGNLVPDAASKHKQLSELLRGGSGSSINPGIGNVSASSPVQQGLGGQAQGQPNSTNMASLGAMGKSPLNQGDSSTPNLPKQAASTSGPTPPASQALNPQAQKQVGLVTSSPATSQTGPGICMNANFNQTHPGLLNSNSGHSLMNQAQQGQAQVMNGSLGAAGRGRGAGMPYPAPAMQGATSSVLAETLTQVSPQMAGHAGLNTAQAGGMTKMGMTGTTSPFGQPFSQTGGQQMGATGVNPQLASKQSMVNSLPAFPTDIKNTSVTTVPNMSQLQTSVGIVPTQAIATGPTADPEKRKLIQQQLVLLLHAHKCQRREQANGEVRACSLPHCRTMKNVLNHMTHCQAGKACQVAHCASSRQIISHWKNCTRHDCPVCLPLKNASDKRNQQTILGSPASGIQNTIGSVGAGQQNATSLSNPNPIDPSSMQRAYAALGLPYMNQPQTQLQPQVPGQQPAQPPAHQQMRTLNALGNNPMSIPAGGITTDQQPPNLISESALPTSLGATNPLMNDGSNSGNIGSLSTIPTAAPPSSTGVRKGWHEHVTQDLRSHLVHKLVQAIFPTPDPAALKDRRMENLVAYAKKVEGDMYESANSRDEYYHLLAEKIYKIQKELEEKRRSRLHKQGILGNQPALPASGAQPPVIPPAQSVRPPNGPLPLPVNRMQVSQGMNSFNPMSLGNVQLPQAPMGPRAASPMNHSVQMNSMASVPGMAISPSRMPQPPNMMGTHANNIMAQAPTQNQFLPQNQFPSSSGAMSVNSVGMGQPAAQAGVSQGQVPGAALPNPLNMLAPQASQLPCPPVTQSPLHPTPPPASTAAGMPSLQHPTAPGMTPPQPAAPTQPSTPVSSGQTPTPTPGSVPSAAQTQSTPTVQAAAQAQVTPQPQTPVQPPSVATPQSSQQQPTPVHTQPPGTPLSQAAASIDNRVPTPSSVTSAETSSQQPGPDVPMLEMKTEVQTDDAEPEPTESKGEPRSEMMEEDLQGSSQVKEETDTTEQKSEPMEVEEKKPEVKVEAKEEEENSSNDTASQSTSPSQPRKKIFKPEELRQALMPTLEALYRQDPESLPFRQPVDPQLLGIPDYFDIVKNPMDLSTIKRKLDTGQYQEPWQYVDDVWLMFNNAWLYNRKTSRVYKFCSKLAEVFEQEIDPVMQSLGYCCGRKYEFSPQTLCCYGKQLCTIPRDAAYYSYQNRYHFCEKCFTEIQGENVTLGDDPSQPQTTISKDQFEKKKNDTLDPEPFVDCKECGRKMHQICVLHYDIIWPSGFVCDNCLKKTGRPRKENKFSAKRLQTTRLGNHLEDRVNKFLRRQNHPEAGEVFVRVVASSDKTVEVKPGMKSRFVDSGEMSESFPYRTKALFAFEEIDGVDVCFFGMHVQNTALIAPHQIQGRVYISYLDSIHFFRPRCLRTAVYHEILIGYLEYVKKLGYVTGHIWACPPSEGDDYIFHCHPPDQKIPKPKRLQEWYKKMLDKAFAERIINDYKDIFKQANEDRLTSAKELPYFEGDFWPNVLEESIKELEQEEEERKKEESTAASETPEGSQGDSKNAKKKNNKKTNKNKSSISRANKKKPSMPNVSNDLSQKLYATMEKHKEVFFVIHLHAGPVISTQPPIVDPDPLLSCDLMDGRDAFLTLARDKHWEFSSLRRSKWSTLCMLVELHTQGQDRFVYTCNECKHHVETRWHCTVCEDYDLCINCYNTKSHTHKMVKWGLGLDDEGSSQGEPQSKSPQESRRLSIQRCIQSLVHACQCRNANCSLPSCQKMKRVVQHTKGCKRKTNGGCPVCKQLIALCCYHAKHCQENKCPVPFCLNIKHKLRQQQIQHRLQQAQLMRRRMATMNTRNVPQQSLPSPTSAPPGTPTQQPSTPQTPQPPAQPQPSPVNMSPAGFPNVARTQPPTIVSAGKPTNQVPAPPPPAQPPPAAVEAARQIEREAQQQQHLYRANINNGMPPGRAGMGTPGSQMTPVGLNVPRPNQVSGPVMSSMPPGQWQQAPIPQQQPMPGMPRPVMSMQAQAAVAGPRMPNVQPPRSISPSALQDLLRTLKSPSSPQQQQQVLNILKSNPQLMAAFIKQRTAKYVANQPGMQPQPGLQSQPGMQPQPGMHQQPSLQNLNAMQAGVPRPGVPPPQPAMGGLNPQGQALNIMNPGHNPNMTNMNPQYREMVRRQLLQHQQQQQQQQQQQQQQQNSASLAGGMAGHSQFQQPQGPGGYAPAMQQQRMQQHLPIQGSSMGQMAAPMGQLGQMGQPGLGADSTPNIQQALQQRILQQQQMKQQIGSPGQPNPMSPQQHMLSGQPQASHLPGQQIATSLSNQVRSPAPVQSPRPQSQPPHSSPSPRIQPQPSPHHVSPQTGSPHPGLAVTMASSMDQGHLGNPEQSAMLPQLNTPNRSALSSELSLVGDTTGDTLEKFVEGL

Substance: CREB-binding protein (CBP) (from UniProt P45481 1-2441)
- binding: binds
